Data reported in PubChem BioAssay AID1487 (National Center for Advancing Translational Sciences (NCATS), 2009).
The other results are listed elsewhere or left out. The main result of the screen is listed elsewhere. These columns were measured beside it and carry no call. Most of these compounds were active or inconclusive in the main read-out, so they are no random draw. The note in brackets gives the kind of curve behind each potency; many fits are weak.

Test: qHTS Assay for Modulators of Lamin A Splicing
Details: HeLa LMNA splicing GFP/RFP minigene ratio, 48 h
Outline: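 Read-out is the ratio of GFP to DsRed2 object intensity, acquired by 488 nm laser-scanning cytometry on HeLa lamin A-EGFP minigene reporter cells. Compound incubation 48 hrs at 37 °C in Opti-MEM with 2% FBS; DMSO 0.5% final.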

[1] = measured here: RFP viability control channel
[2] = measured here: GFP splicing reporter channel

SMILES: Cc1ccc(/C=C/C(=O)Nc2sc(C)c(C)c2C(=O)OC(C)C)o1
- AC50 [1]: 2.82 µM [rising, full curve]

SMILES: O=C1CN(/N=C/c2ccc(-c3ccc([N+](=O)[O-])cc3)o2)C(=O)N1
- AC50 [2]: 6.31 µM [rising, single point]
- AC50 [1]: 6.31 µM [rising, single point]

SMILES: CCN(CC)S(=O)(=O)c1cccc(-c2nnc(SC(C)C(=O)NCCC3=CCCCC3)o2)c1 (centres undefined)
- AC50 [1]: 35.5 µM [rising, single point]

SMILES: CN1CCC(=NNC(=O)CN(c2ccc(Oc3ccccc3)cc2)S(C)(=O)=O)CC1
- AC50 [1]: 28.2 µM [rising, partial curve, poor fit]

SMILES: Cc1ccc(C)c(C(=O)Cn2ncc(Cl)c(Cl)c2=O)c1
- AC50 [1]: 11.2 µM [falling, partial curve]

SMILES: COc1ccc(-c2cc(-c3ccc(N)cc3)nc(N)c2C#N)cc1OC
- AC50 [2]: 28.2 µM [falling, partial curve, poor fit]

SMILES: Cc1ccc(C(=O)CC(=O)COc2ccc(Cl)cc2)cc1
- AC50 [1]: 12.6 µM [rising, single point]

SMILES: COC(=O)c1ccc(NC(=O)CSc2nnc(COc3ccc4c(c3)CCCC4)o2)cc1
- AC50 [1]: 0.00501 µM [falling, full curve, poor fit]

SMILES: COc1ccc(C(=O)C[n+]2ccc3c(c2)nc(-c2ccccc2)n3C)cc1
- AC50 [2]: 12.6 µM [rising, partial curve]
- AC50 [1]: 17.8 µM [rising, partial curve]

SMILES: Cc1c(NC(=O)OCCSc2nc(N(C)C)nc(N(C)C)n2)sc(=S)n1C
- AC50 [2]: 20 µM [rising, single point]
- AC50 [1]: 31.6 µM [rising, single point]

SMILES: COc1ccc(OC)c(NC(=O)CSC2=C(C#N)C(c3ccco3)C3=C(CCCC3=O)N2)c1 (centres undefined)
- AC50 [1]: 35.5 µM [rising, single point]

SMILES: O=C(CNCc1cccnc1)Nc1cc(C(F)(F)F)ccc1N1CCOCC1
- AC50 [1]: 0.0112 µM [falling, full curve, poor fit]

SMILES: Cc1csc(SCC(=O)Nc2sc3c(c2C#N)CCC3)n1
- AC50 [2]: 35.5 µM [rising, single point]
- AC50 [1]: 35.5 µM [rising, single point]

SMILES: Cc1ccccc1-n1nnnc1SCc1ncc(-c2ccccc2)o1
- AC50 [1]: 11.2 µM [rising, single point]

SMILES: CC1(C)NC(=O)N(CCCCOc2cccc(C(F)(F)F)c2)C1=O
- AC50 [2]: 12.6 µM [rising, single point]
- AC50 [1]: 14.1 µM [rising, single point]

SMILES: c1nc(N2CCC3(CC2)OCCO3)c2c3c(sc2n1)CCCC3
- AC50 [1]: 14.1 µM [rising, partial curve]

SMILES: CCCCCCCNC1=CC(=O)CC(c2ccccc2)C1 (centres undefined)
- AC50 [1]: 20 µM [rising, single point]

SMILES: Cc1[nH]nc2ncc(C(=O)c3ccccc3O)cc12
- AC50 [2]: 8.91 µM [rising, partial curve]

SMILES: Cc1ccc(NC(=S)NN(C)c2cc(C)nc(C)n2)cc1
- AC50 [2]: 35.5 µM [rising, single point]
- AC50 [1]: 31.6 µM [rising, single point]

SMILES: CCOC(=O)CSc1c(-c2cccs2)[nH]c2ccccc12
- AC50 [2]: 14.1 µM [rising, partial curve]
- AC50 [1]: 22.4 µM [rising, single point]

SMILES: O=C(Nc1nc2ccc(Cl)cc2s1)[C@@H]1CCCN1C(=O)c1cccs1
- AC50 [1]: 35.5 µM [rising, single point]

SMILES: O=C1CCC(/C=C/c2ccccc2)=NN1Cc1ccc(Cl)c(Cl)c1
- AC50 [1]: 31.6 µM [rising, single point]

SMILES: CCN1/C(=C/c2cc[n+](C)cc2)C=Cc2cc(C)ccc21
- AC50 [2]: 2.51 µM [rising, full curve]
- AC50 [1]: 2.82 µM [rising, full curve]

SMILES: COc1ccc(CCNC(=O)CSc2nnc(-c3ccc(F)cc3)o2)cc1OC
- AC50 [2]: 7.08 µM [rising, partial curve]
- AC50 [1]: 12.6 µM [rising, single point]

SMILES: CC(C)(C)c1cc(=O)n2c(nc3ccccc32)[nH]1
- AC50 [2]: 14.1 µM [rising, partial curve]
- AC50 [1]: 17.8 µM [rising, partial curve]

SMILES: Cc1oc2cc3c(C(=O)N4CCCCC4)c(C)oc3cc2c1C(=O)N1CCCCC1
- AC50 [1]: 5.01 µM [rising, partial curve, poor fit]

SMILES: Cc1ccc(-n2c(C)cc(C(=O)COc3c(CO)cc(F)cc3CO)c2C)cc1C
- AC50 [2]: 35.5 µM [rising, single point]

SMILES: O=C(NCCc1csc(-c2ccc(C(F)(F)F)cc2)n1)C(=O)Nc1cc(F)ccc1F
- AC50 [1]: 2.51 µM [falling, partial curve, poor fit]

SMILES: COc1ccc(NC(=O)CCCn2c(=O)c3cccn3c3ccccc32)c(OC)c1
- AC50 [2]: 0.02 µM [rising, full curve, poor fit]

SMILES: CC(NCc1ccc(-c2ccccc2)cc1)C(O)c1ccccc1 (centres undefined)
- AC50 [1]: 8.91 µM [rising, partial curve, poor fit]

SMILES: COc1ccc(-c2[nH]ncc2CNC(C)c2cn(C)nc2C)c(F)c1 (centres undefined)
- AC50 [2]: 0.447 µM [falling, single point]

SMILES: CCOC(=O)c1c(C)[nH]c(CCC(=O)NCCCN2CCN(c3cc(Cl)ccc3C)CC2)c1C
- AC50 [2]: 11.2 µM [falling, partial curve, poor fit]
- AC50 [1]: 11.2 µM [falling, partial curve]

SMILES: Cc1c(CCNC(=O)Cc2ccc(F)cc2)sc2nc(-c3ccc(F)cc3)nn12
- AC50 [2]: 0.0562 µM [falling, full curve]
- AC50 [1]: 0.0447 µM [falling, partial curve, poor fit]

SMILES: O=C(/C=C/c1cccs1)N1CCN(Cc2ccc3c(c2)OCO3)CC1
- AC50 [2]: 14.1 µM [rising, single point]

SMILES: CCOc1ccc(C(=O)Nc2cccc(OCc3cc(=O)n4ccccc4n3)c2)cc1
- AC50 [1]: 6.31 µM [falling, single point]

SMILES: CCOC(=O)Cc1c(Cl)c2ccccc2[nH]c1=O
- AC50 [2]: 35.5 µM [falling, partial curve]
- AC50 [1]: 25.1 µM [falling, partial curve, poor fit]
